Measured values reported in PubChem BioAssay AID1246 (Columbia University Molecular Screening Center, 2008).
In all, about 120,000 compounds went through this assay and about 840 (0.7%) were called active. The shares of active, inactive and inconclusive entries below differ from those in the screen.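 The calls were made as follows: active = inhibition above the batch mean plus 3 SD, and confirmed as a hit on visual image review (cut at about 43% in these data); inconclusive = passes the inhibition cutoff but fails visual image review; inactive = the rest.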

assay: E-selectin induction blockers in HUVEC – imaging, immunofluorescence, high content, primary screen (AID 1246); conditions: HUVEC TNFa-induced E-selectin immunofluorescence, at 2 µM, hits give high values;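 also: 0% = TNF-stimulated DMSO wells and 100% = unstimulated control wells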

Row | SMILES | inhibition
1 | O=[N+]([O-])c1ccc(N2CCNCC2)cc1NCC1CCCO1 (stereo unspecified) | inconclusive: 61.1%
